{
  "source": "patent US10308606B2",
  "about": "“PSMA-targeted NIR dyes and their uses” (On Target Laboratories, LLC, priority 2016, dated 2019)",
  "key": {"[1]": {"assay": "Excitation and emission spectra", "assay_type": "physicochemical", "settings": "FIG. 1"}, "[2]": {"tested_on": "PC3 tumors (PSMA-negative)", "assay": "In vivo specificity: whole-body imaging and biodistribution, PC3 tumors", "design": "species or system nude mice", "settings": "FIGS. 5A & B"}, "[3]": {"tested_on": "22Rv1 human prostate tumor xenograft (PSMA-positive)", "assay": "Whole-body imaging and ex vivo tissue biodistribution, 22Rv1 tumor xenografts", "assay_type": "in vivo, mice", "settings": "10 nmol i.v., 2 h post injection, FIG. 3 and 4"}},
  "note": "At least one peptide structure holds a part that was inferred or is arguable (an end, a ring closure or a residue).",
  "data": [
    {"smiles": "CC1(C)C(/C=C/C2=C(Oc3ccc(C[C@H](NC(=O)[C@H](Cc4ccccc4)NC(=O)CCOCCOCCNC(=O)CC[C@H](NC(=O)N[C@@H](CCC(=O)O)C(=O)O)C(=O)O)C(=O)O)cc3)C(=C/C=C3/N(CCCCS(=O)(=O)O)c4ccc(S(=O)(=O)O)cc4C3(C)C)/CCC2)=[N+](CCCCS(=O)(=O)[O-])c2ccc(S(=O)(=O)O)cc21", "note": "[1: OTL78, DUPA_PEG2_Phe_Tyr-50456]", "values": [
      {"measurement": "Stokes shift", "setting": "[1]", "value": 20, "unit": "nm"},
      {"measurement": "emission wavelength", "setting": "[1]", "value": 796, "unit": "nm"},
      {"measurement": "excitation wavelength", "setting": "[1]", "value": 776, "unit": "nm"},
      {"measurement": "accumulation in PSMA-negative PC3 prostate tumors", "setting": "[2]", "value": "did not accumulate"},
      {"measurement": "uptake in tumor and other tissues", "setting": "[3]", "value": "solely taken up in PSMA-positive tumors with no accumulation in other tissues"}
    ]}
  ]
}
